Measured values as given in article PMC13572447.
These are yes or no findings as the source states them, for the method shown. Binding seen in cells or lysates may run through a third protein. A yes stands for co-enrichment or nearness to the bait. Other partners may have been found. Where a sequence is shown, tags or fusion partners need not be part of it.

By UniProt entry, the sequences of proteins in these tests, tags left out.
UniProt P45974: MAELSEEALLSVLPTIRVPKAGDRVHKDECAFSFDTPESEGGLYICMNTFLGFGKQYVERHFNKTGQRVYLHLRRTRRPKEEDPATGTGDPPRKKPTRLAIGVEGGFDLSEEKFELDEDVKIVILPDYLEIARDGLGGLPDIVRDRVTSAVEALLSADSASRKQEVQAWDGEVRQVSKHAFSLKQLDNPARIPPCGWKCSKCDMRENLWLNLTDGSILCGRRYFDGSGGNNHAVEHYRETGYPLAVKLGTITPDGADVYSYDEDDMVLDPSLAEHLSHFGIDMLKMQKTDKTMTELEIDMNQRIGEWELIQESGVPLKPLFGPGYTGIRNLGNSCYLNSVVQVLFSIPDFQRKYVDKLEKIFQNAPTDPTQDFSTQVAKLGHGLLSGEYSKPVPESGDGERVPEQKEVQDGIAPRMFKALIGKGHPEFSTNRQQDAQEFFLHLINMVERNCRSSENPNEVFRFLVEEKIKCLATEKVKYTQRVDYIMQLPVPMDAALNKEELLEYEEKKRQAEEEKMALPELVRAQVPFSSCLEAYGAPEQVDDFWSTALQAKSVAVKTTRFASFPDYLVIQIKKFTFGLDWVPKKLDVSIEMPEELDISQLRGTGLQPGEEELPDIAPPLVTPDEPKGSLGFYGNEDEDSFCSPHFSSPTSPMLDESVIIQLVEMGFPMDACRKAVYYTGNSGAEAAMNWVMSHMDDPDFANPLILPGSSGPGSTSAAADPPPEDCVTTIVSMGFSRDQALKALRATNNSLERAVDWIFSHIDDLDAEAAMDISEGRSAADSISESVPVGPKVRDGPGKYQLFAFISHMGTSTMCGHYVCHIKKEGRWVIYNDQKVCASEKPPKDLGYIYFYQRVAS

Biological target: T1, HA-SDE2UBL-PA activity-based probe (human) (UniProt Q6IQ49)
T1 sequence (chain, C-terminal propargylamide, Gly77 replaced with a propargyl electrophilic warhead): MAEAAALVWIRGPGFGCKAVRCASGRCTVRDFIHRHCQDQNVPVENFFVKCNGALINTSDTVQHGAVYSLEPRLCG
Assay: affinity purification with mass spectrometry; HEK293 lysate with 1 µM HA-SDE2UBL-PA, anti-HA immunoprecipitation, trypsin digestion, DIA proteomics against a no-probe control, triplicate; only the target purified

Substance: endogenous USP5 of HEK293 cell lysate (from UniProt P45974 1-858) (enzyme)
- binding: binds
